Data taken from PubChem BioAssay AID504749, deposited by NCATS (2011).

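A panel of P. falciparum strains inside erythrocytes is exposed to compounds for three days, then a DNA-binding dye reports the amount of parasite DNA. Each compound was titrated across a series from about 0.000037 to 29 µM. The number is the fitted AC50, the concentration giving a half-maximal change in signal; a lower value means higher potency, whether the curve shows a decrease or an increase. Calls follow the curve class and fit quality: every row here is inconclusive, covering signal-raising curves and weak, poorly fitted, partial or highest-dose-only inhibition curves.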

Values are in nM. All entries here are filed as inconclusive. These entries are mostly ones the record files as inconclusive; other results of the assay are not listed here. Potencies fitted to partial, single-point or poorly fitting curves are rough. Some entries filed as inconclusive have a full curve.

compound	setting	Potency (nM)	remark
CCC(=O)O[C@@]1(C(=O)SCF)[C@@H](C)C[C@H]2[C@@H]3C[C@@H](F)C4=CC(=O)C=C[C@@]4(C)[C@]3(F)[C@@H](O)C[C@]21C	PC26	3220	inhibitor, partial curve
CCC(=O)O[C@@]1(C(=O)SCF)[C@@H](C)C[C@H]2[C@@H]3C[C@@H](F)C4=CC(=O)C=C[C@@]4(C)[C@]3(F)[C@@H](O)C[C@]21C	3D7	7080	inhibitor, single point
CCC(=O)O[C@@]1(C(=O)SCF)[C@@H](C)C[C@H]2[C@@H]3C[C@@H](F)C4=CC(=O)C=C[C@@]4(C)[C@]3(F)[C@@H](O)C[C@]21C	FAB9	10000	inhibitor, single point
COc1ccc2c(=O)c(C)c(-c3ccccc3)oc2c1CN(C)C	CP329	3381	inhibitor, partial curve, poor fit
COc1ccc2c(=O)c(C)c(-c3ccccc3)oc2c1CN(C)C	7G8	10000	inhibitor, partial curve, poor fit
COc1ccc2c(=O)c(C)c(-c3ccccc3)oc2c1CN(C)C	N140	17782	inhibitor, single point
COc1ccc2c(=O)c(C)c(-c3ccccc3)oc2c1CN(C)C	P94_40	8912	inhibitor, partial curve, poor fit
COc1ccc2c(=O)c(C)c(-c3ccccc3)oc2c1CN(C)C	AA1029	8912	inhibitor, partial curve, poor fit
COc1ccc2c(=O)c(C)c(-c3ccccc3)oc2c1CN(C)C	ATS95	11220	inhibitor, single point
COc1ccc2c(=O)c(C)c(-c3ccccc3)oc2c1CN(C)C	ICS	3162	inhibitor, partial curve
COc1ccc2c(=O)c(C)c(-c3ccccc3)oc2c1CN(C)C	P93_24	8912	inhibitor, single point
COc1ccc2c(=O)c(C)c(-c3ccccc3)oc2c1CN(C)C	CP286	10000	inhibitor, partial curve
COc1ccc2c(=O)c(C)c(-c3ccccc3)oc2c1CN(C)C	CP215	21331	inhibitor, partial curve, poor fit
COc1ccc2c(=O)c(C)c(-c3ccccc3)oc2c1CN(C)C	CP335	19011	inhibitor, partial curve, poor fit
COc1ccc2c(=O)c(C)c(-c3ccccc3)oc2c1CN(C)C	DIV17	21331	inhibitor, single point
COc1ccc2c(=O)c(C)c(-c3ccccc3)oc2c1CN(C)C	DIV14	19011	inhibitor, single point
COc1ccc2c(=O)c(C)c(-c3ccccc3)oc2c1CN(C)C	DFO2036	11220	inhibitor, partial curve
N#Cc1ccc2c(c1)N(CCCN1CCC(O)CC1)c1ccccc1S2	CP268	8492	inhibitor, partial curve, poor fit
N#Cc1ccc2c(c1)N(CCCN1CCC(O)CC1)c1ccccc1S2	TAB165	12589	inhibitor, partial curve
N#Cc1ccc2c(c1)N(CCCN1CCC(O)CC1)c1ccccc1S2	CP335	2393	inhibitor, full curve
N#Cc1ccc2c(c1)N(CCCN1CCC(O)CC1)c1ccccc1S2	P94_40	11220	inhibitor, partial curve
N#Cc1ccc2c(c1)N(CCCN1CCC(O)CC1)c1ccccc1S2	DIV30	9528	inhibitor, partial curve
N#Cc1ccc2c(c1)N(CCCN1CCC(O)CC1)c1ccccc1S2	PAD	7943	inhibitor, partial curve
N#Cc1ccc2c(c1)N(CCCN1CCC(O)CC1)c1ccccc1S2	CP305	11995	inhibitor, partial curve
N#Cc1ccc2c(c1)N(CCCN1CCC(O)CC1)c1ccccc1S2	CP291	6012	inhibitor, partial curve, poor fit
N#Cc1ccc2c(c1)N(CCCN1CCC(O)CC1)c1ccccc1S2	CP329	6012	inhibitor, partial curve
O=C(CCCN1CCC(n2c(=O)[nH]c3ccccc32)CC1)c1ccc(F)cc1	C2A	7943	inhibitor, single point
O=C(CCCN1CCC(n2c(=O)[nH]c3ccccc32)CC1)c1ccc(F)cc1	CP194	8087	inhibitor, single point
O=C(CCCN1CCC(n2c(=O)[nH]c3ccccc32)CC1)c1ccc(F)cc1	CP252	7080	inhibitor, single point
O=C(CCCN1CCC(n2c(=O)[nH]c3ccccc32)CC1)c1ccc(F)cc1	CP315	8087	inhibitor, single point
O=C(CCCN1CCC(n2c(=O)[nH]c3ccccc32)CC1)c1ccc(F)cc1	CP329	6424	inhibitor, single point
O=C(CCCN1CCC(n2c(=O)[nH]c3ccccc32)CC1)c1ccc(F)cc1	CP211	6424	inhibitor, single point
O=C(CCCN1CCC(n2c(=O)[nH]c3ccccc32)CC1)c1ccc(F)cc1	CP185	10000	inhibitor, single point
O=C(CCCN1CCC(n2c(=O)[nH]c3ccccc32)CC1)c1ccc(F)cc1	CP201	5726	inhibitor, single point
O=C(CCCN1CCC(n2c(=O)[nH]c3ccccc32)CC1)c1ccc(F)cc1	CP266	8087	inhibitor, partial curve, poor fit
O=C(CCCN1CCC(n2c(=O)[nH]c3ccccc32)CC1)c1ccc(F)cc1	CP192	8087	inhibitor, single point
O=C(CCCN1CCC(n2c(=O)[nH]c3ccccc32)CC1)c1ccc(F)cc1	CP297	8087	inhibitor, single point
Oc1c(I)cc(Cl)c2cccnc12	TAB113	17782	inhibitor, single point
Oc1c(I)cc(Cl)c2cccnc12	CP215	19011	inhibitor, single point
Oc1c(I)cc(Cl)c2cccnc12	CP291	11995	inhibitor, single point
Oc1c(I)cc(Cl)c2cccnc12	SC27B	17782	inhibitor, single point
Oc1c(I)cc(Cl)c2cccnc12	CP260	10000	inhibitor, single point
Oc1c(I)cc(Cl)c2cccnc12	CP265	1995	inhibitor, partial curve, poor fit
Oc1c(I)cc(Cl)c2cccnc12	GB4	9528	inhibitor, partial curve
Oc1c(I)cc(Cl)c2cccnc12	PAD	11220	inhibitor, single point
Oc1c(I)cc(Cl)c2cccnc12	N140	17782	inhibitor, single point
Oc1c(I)cc(Cl)c2cccnc12	ICS	17782	inhibitor, single point
Oc1c(I)cc(Cl)c2cccnc12	DIV14	4776	inhibitor, partial curve, poor fit
Oc1c(I)cc(Cl)c2cccnc12	AA1029	11220	inhibitor, single point
Oc1c(I)cc(Cl)c2cccnc12	CP192	13459	inhibitor, single point
Oc1c(I)cc(Cl)c2cccnc12	CP262	21331	inhibitor, partial curve, poor fit
Oc1c(I)cc(Cl)c2cccnc12	DFO2036	14125	inhibitor, partial curve, poor fit
Oc1c(I)cc(Cl)c2cccnc12	7G8	10000	inhibitor, single point
CCOC(=O)c1ccc(C#Cc2ccc3c(c2)C(C)(C)CCS3)nc1	CP256	10000	inhibitor, single point
CCOC(=O)c1ccc(C#Cc2ccc3c(c2)C(C)(C)CCS3)nc1	C2A	12589	inhibitor, single point
CCOC(=O)c1ccc(C#Cc2ccc3c(c2)C(C)(C)CCS3)nc1	W2	9528	inhibitor, partial curve

The first 7 entries again:

- CCC(=O)O[C@@]1(C(=O)SCF)[C@@H](C)C[C@H]2[C@@H]3C[C@@H](F)C4=CC(=O)C=C[C@@]4(C)[C@]3(F)[C@@H](O)C[C@]21C [PC26] | Potency 3220 nM (inhibitor, partial curve)
- CCC(=O)O[C@@]1(C(=O)SCF)[C@@H](C)C[C@H]2[C@@H]3C[C@@H](F)C4=CC(=O)C=C[C@@]4(C)[C@]3(F)[C@@H](O)C[C@]21C [3D7] | Potency 7080 nM (inhibitor, single point)
- CCC(=O)O[C@@]1(C(=O)SCF)[C@@H](C)C[C@H]2[C@@H]3C[C@@H](F)C4=CC(=O)C=C[C@@]4(C)[C@]3(F)[C@@H](O)C[C@]21C [FAB9] | Potency 10000 nM (inhibitor, single point)
- COc1ccc2c(=O)c(C)c(-c3ccccc3)oc2c1CN(C)C [CP329] | Potency 3381 nM (inhibitor, partial curve, poor fit)
- COc1ccc2c(=O)c(C)c(-c3ccccc3)oc2c1CN(C)C [7G8] | Potency 10000 nM (inhibitor, partial curve, poor fit)
- COc1ccc2c(=O)c(C)c(-c3ccccc3)oc2c1CN(C)C [N140] | Potency 17782 nM (inhibitor, single point)
- COc1ccc2c(=O)c(C)c(-c3ccccc3)oc2c1CN(C)C [P94_40] | Potency 8912 nM (inhibitor, partial curve, poor fit)